At least one compound was matched to its structure with a doubt left.
How the values were obtained:
[1] = system: native U2OS cell line lacking TLRs; assay: IL8 expression in native U2OS cell line lacking TLRs after agonist treatment; type: cell-based, human
TLR7 = target: T1, TLR7 (Homo sapiens, UniProt Q9NYK1); type: cell-based; conditions: TLR7 agonist control in TLR7 expressing U2OS cells
T1 construct: expressed in transfected cells
T1 sequence (Q9NYK1 27-1049): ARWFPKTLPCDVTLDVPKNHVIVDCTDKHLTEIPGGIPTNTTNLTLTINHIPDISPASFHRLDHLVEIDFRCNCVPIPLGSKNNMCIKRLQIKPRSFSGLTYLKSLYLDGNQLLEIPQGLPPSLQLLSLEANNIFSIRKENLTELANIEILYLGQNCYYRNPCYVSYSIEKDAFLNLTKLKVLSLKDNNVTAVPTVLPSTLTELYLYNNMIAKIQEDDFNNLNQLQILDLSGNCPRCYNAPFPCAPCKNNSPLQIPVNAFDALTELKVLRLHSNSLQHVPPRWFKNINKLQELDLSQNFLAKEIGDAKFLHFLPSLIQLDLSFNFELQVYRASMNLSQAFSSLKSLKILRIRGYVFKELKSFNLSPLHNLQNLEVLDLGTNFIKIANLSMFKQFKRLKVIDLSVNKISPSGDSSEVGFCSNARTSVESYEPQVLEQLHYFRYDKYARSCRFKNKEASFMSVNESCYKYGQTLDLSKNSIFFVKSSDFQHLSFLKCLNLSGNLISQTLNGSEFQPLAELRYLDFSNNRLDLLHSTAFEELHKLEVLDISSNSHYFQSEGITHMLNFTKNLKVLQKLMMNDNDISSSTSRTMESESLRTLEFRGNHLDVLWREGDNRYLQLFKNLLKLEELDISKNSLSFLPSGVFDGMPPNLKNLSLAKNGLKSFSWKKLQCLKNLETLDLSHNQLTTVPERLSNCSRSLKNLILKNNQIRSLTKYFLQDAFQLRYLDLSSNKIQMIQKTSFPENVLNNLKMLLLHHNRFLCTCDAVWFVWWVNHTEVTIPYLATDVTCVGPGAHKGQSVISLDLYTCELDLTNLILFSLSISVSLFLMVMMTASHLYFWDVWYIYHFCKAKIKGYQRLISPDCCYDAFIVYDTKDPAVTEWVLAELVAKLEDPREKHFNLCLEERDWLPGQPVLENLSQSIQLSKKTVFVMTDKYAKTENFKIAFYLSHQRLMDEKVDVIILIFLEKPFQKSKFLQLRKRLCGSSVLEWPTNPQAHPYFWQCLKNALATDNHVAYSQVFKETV
Protocol: Human U205-TLR7 and Human U205-TLR8 cells were grown at 37 degrees in the presence of 5% CO2 and were cultured in Dulbeco's modified Eagle's Medium (DMEM), 1% non essential amino acids, supplemented with fetal bovine serum at 10% and 100 ug/ml streptomycin and 100 u/ml penicillin. Stable expression of TLR7 and TLR8 was maintained by the addition of 300 ug/ml […].
TLR7 and TLR8 expressing U2OS osteosarcoma cells were seeded in 96-well plate format at a concentration of 2×10^4 cells/well 24 hours prior to transfection. Cells were transfected with the siNAs using DharmaFECT1 lipid transfection reagent using Resiquimod (R848) and the LyoVec-complexed, GU-rich oligonucleotide ssRNA40 respectively as controls (100 μl/well). (DharmaFECT1 was used as the delivery agent for the siNAs as it combines low immunostimulatory effects with high delivery efficiency.) The treatment media were replaced after 6 hours with antibiotic containing DMEM. Cells were harvested 24 hours following transfection. […] An agonist concentration range of 4-10 μg/ml was established since it caused optimal levels of IL8 mRNA expression for the assay.
TLR7 and TLR8 mediated immunostimulation was measured by the increase in IL8 mRNA levels when the siNAs were formulated with DharmaFect1 (Gibco BRL) and delivered to U2OS cells that were engineered to stably express TLR7 or TLR8. […]

`CCOCc1nc2c(N)nc3ccccc3c2n1CC(C)(C)O` [R848, Resiquimod, reference compound] was tested, and the IL8 expression [1] was “No significant IL8 expression” and the IL8 expression (TLR7) was “increased IL8 expression in a dose response manner”.

From US20120016010A1, “RNA Interference Mediated Inhibition of BTB and CNC Homology 1, Basic Leucine Zipper Transcription Factor 1 (BACH1) Gene Expression Using Short Interfering Nucleic Acid (siNA)” (Merck Sharp & Dohme Corp, priority 2009, published 2012)
